No constants are given. Whether binding was seen depends on the method and setting. Binding seen in cells or lysates may run through a third protein. Binding can be weak; no strength is given.
Biological target: Nef protein tagged at its C-terminal end with the HA epitope (HIV-1)
Assay: co-immunoprecipitation from 293T cells (anti-HA IP, anti-c-myc blot)

B1: sdAb Nef19 (VHH)
VHH: EVQLVESGGGLVQPGGSLKLSCAASGSIFRANAMRWYRQAPGKQREWVASVISDDFTDYVDSVRGRFTISKDNAQNTVYLQMNSLKPEDTAVYYCNAQLGGVNYWGQGTQVTVSS
notes: Llama VHH from the immune library; The soluble form carries C-terminal c-myc and 6His tags and is detected with mAb 9E10; also called sdAb Nef19P; sdAb Nef19C
  binding: binds

From US20130330342A1 (CENTRE NATIONAL DE LA RECHERCHE SCIENTIFIQUE CNRS, published 2013)
